Laboratory results from paper PMC3473030.
Results are given in words; binding and its absence hold for the method and conditions named. In cells and extracts the contact can be indirect. Some results given as binding are weak or reduced against the parent protein; the word gives no strength.

Sequences of proteins named here, by UniProt entry; tags and fusion partners are left off.
UniProt P38936: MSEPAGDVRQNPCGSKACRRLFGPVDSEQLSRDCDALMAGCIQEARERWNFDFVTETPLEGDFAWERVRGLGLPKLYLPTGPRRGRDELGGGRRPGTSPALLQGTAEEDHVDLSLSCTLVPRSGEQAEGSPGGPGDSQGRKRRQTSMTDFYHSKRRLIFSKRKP
UniProt P24385: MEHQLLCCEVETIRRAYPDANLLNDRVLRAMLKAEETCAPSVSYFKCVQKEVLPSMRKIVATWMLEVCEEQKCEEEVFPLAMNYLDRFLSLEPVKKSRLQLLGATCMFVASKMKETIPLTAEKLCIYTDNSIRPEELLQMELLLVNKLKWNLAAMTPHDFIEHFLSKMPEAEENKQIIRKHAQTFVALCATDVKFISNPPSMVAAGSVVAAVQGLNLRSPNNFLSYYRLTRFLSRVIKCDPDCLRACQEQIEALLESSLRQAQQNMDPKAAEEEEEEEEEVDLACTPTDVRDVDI

Target: p21 (human (endogenous in A549)) (UniProt P38936)
Experiment: co-IP; 200 ug protein from lysates of control or VCO-treated A549 cells (0 to 36 h); immunoprecipitated overnight at 4 C with anti-p21 antibody and protein A agarose; immunoblot with anti-cyclin D1

binding: binds
Substance: cyclin D1 (from UniProt P24385 1-295)
